Reference: article PMC4634812, “Characterization of proliferating cell nuclear antigen (PCNA) from pathogenic yeast Candida albicans and its functional analyses in S. Cerevisiae” (BMC Microbiology, 2015)
These are yes or no findings as the source states them, for the method shown. Some results given as binding are weak or reduced against the parent protein; the word gives no strength. Values belong to the molecule of their own block, whether it stands above or below them.

Chains of the proteins cited; added tags and fusions are not shown. Lines headed by an entry give the natural chain unless they say otherwise; changes in a name come on top.
UniProt P15873: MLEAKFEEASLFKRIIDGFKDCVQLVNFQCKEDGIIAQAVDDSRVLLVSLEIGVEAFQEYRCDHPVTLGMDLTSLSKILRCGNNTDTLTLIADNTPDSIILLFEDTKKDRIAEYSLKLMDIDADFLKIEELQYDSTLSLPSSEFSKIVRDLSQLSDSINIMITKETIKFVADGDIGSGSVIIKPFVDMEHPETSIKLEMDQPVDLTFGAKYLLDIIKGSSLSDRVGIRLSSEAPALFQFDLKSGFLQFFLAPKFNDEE

Legend:
[1] = target: Saccharomyces cerevisiae PCNA G178S mutant (S. cerevisiae) (UniProt P15873); assay: cross-linking; about 20 μg protein in 20 mM HEPES pH 7.5 with glutaraldehyde, 5 min at 37 °C, then 12 % SDS-PAGE; both purified
[2] = target: Saccharomyces cerevisiae PCNA (ScPCNA), wild type (S. cerevisiae) (UniProt P15873); assay: urea-PAGE; 12 % polyacrylamide gel containing 6 M urea, Coomassie stain; both purified
[3] = target: Candida albicans proliferating cell nuclear antigen (CaPCNA), wild type (Candida albicans SC5314) (UniProt Q5AMN0); assay: as above

binding [1]: binds weakly
Molecule: Saccharomyces cerevisiae PCNA G178S mutant (from UniProt P15873 1-258)

binding [2]: no binding (condition: 6 M urea)
Molecule: Saccharomyces cerevisiae PCNA (ScPCNA), wild type (from UniProt P15873 1-258)

B1: Candida albicans proliferating cell nuclear antigen (CaPCNA), wild type (natural protein, Candida albicans SC5314, UniProt Q5AMN0 1-259, looked up)
chain: MLEGKFEEAALLKKVVEAIKDCVKKCNFNCSEHGITVQAVDDSRVLLVSLLIGQTSFSEYRCDRDVTLGIDLESFSKIIKSANNEDFLTLLAEDSPDQIMAILEEKQKEKISEYSLKLMDIDSEFLQIDDMEYDAVVNMPSSDFAKLVRDLKNLSESLRVVVTKDSVKFTSEGDSGSGSVILKPYTNLKNERESVTISLDDPVDLTFGLKYLNDIVKAATLSDVITIKLADKTPALFEFKMQSGGYLRFYLAPKFDDDE
notes: PCNA (POL30) of Candida albicans SC5314, orf19.4616 of the Candida Genome Database, 259 amino acids; the orf was amplified from genomic DNA with primers from the start to the stop codon; A few residues of the Prescission site and the cloning site may remain at the N-terminus after cleavage; also called orf19.4616; CaO19.12086; source: E. coli BL21-DE3, purified (glutathione beads, eluted by …)
binding [3]: no binding (condition: 6 M urea)
